Paper PMC3796317
Results are given in words; binding and its absence hold for the method and conditions named. Binding seen in cells or lysates may run through a third protein. A yes stands for co-enrichment or nearness to the bait. Other partners may have been found. Each block holds one molecule with its values, some of them ahead of it.

Protein sequences, listed by entry. Tags and fused reporters are not part of them.
UniProt P30052: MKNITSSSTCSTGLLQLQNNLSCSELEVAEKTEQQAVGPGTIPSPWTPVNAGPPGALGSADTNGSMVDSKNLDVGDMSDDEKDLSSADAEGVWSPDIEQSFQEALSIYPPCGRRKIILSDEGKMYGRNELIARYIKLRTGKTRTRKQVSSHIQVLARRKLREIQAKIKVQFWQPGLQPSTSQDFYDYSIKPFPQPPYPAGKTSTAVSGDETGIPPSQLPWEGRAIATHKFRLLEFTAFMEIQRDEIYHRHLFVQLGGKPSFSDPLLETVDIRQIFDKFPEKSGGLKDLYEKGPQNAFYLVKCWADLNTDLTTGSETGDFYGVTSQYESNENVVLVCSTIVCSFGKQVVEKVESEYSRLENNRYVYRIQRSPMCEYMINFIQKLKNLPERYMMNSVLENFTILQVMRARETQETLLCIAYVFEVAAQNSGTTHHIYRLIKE
UniProt P25439: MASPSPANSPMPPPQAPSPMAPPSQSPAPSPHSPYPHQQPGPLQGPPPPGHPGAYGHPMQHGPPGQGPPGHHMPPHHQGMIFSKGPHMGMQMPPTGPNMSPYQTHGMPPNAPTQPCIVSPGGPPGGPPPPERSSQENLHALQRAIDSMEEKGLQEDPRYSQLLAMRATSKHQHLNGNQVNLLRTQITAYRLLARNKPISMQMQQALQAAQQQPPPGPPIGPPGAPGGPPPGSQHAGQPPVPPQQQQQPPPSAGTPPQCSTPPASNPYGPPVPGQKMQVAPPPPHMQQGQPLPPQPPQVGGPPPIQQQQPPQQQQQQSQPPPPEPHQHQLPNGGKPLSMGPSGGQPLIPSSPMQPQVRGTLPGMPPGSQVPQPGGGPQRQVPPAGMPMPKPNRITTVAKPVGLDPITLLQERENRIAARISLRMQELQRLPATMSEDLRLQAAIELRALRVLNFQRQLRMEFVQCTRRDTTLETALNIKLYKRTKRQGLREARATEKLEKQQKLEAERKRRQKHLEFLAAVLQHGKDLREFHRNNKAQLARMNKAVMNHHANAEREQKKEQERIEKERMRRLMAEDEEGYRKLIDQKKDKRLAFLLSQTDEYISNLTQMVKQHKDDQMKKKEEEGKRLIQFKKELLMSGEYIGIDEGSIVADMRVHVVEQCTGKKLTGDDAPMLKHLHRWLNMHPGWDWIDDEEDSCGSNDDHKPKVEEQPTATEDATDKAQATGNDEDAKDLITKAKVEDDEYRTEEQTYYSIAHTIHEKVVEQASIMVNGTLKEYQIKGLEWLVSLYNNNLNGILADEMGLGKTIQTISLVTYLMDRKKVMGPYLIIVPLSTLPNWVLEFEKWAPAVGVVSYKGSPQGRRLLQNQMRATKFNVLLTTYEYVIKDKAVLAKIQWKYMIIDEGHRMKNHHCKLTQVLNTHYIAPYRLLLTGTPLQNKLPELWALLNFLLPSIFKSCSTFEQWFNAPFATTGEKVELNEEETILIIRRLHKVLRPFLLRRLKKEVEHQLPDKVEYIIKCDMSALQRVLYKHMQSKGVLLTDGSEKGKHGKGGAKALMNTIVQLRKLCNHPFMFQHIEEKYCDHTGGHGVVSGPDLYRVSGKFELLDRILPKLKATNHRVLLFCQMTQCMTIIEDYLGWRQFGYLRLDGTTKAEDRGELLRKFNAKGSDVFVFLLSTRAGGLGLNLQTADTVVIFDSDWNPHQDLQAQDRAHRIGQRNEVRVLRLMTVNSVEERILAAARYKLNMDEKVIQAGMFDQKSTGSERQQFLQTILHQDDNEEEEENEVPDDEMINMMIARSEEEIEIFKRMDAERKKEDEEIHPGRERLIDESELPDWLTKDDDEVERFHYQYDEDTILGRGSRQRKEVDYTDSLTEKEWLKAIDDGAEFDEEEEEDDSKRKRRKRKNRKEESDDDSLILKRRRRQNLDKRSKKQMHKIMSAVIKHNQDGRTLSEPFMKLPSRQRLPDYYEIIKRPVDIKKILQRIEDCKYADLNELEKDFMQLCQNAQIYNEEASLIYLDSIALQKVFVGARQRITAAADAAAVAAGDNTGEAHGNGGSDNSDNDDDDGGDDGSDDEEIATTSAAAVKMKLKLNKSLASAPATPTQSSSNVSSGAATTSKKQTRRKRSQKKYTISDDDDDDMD
UniProt Q8IN94: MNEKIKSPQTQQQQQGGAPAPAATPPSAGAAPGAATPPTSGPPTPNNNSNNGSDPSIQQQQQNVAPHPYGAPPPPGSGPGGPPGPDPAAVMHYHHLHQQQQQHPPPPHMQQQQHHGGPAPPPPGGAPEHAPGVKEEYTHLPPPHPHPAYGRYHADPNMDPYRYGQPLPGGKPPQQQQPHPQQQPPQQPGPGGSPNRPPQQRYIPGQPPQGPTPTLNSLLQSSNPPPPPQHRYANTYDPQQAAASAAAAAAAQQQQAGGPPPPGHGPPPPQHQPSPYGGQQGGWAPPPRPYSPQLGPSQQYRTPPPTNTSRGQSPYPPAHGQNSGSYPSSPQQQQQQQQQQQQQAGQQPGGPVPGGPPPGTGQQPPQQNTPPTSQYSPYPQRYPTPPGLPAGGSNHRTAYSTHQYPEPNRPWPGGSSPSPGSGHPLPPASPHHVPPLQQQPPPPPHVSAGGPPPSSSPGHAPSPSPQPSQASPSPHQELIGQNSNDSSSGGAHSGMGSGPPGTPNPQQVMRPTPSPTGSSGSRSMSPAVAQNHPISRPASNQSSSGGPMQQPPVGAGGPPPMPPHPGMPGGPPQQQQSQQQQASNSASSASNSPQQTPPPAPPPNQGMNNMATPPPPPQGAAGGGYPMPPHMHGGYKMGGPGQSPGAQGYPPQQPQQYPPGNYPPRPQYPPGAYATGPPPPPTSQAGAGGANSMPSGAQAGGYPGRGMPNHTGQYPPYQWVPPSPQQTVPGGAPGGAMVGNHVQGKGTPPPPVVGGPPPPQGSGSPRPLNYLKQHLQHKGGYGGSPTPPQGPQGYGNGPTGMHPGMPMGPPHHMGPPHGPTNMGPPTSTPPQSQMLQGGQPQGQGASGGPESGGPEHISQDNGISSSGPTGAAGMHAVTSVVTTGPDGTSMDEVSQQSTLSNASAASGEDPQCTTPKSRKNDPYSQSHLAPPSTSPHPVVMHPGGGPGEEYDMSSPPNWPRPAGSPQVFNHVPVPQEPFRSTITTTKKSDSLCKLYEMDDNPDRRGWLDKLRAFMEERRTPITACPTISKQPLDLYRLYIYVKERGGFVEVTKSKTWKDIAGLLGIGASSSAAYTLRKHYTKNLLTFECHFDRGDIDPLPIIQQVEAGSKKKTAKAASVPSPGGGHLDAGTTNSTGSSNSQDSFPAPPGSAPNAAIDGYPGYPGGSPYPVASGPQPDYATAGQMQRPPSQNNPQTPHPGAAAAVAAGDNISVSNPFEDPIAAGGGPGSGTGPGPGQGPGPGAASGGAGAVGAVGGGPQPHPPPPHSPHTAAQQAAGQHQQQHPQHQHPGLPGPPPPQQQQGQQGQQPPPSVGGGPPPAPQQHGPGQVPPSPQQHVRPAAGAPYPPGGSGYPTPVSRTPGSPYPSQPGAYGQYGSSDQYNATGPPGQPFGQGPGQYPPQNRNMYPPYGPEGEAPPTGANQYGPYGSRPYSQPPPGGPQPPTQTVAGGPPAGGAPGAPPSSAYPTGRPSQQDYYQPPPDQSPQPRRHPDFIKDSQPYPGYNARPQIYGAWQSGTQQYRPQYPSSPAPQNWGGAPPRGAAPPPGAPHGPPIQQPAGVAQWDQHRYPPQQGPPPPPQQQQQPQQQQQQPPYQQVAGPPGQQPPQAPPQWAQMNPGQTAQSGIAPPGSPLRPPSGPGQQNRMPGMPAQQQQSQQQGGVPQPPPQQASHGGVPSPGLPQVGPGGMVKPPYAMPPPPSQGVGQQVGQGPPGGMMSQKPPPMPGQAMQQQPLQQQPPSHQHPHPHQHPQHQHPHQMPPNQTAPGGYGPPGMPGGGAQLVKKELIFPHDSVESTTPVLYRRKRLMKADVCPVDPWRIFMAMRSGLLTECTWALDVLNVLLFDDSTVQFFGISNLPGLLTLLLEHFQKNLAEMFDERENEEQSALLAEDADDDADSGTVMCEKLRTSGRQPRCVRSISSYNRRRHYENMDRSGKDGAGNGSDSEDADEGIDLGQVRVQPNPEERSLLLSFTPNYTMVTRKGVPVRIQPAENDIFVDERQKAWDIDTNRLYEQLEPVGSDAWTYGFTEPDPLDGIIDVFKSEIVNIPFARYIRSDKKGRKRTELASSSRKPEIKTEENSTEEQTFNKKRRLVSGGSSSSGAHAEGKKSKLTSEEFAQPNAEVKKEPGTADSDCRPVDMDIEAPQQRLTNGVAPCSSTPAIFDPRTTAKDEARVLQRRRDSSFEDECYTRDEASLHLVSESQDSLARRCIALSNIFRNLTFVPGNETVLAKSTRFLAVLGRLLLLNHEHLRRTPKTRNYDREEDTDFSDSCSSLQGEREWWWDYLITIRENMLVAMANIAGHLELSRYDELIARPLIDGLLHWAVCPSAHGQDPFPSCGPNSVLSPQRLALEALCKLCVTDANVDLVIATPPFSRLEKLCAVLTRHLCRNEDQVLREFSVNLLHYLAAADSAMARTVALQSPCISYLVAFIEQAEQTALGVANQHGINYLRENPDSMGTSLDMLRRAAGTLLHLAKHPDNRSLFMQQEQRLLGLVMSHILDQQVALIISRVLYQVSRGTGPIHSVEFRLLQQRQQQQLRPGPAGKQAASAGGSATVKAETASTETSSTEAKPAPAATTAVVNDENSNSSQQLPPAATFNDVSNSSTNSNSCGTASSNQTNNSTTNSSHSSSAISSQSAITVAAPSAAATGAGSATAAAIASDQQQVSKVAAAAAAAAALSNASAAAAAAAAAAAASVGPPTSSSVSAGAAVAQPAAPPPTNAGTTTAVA
UniProt Q9VF03: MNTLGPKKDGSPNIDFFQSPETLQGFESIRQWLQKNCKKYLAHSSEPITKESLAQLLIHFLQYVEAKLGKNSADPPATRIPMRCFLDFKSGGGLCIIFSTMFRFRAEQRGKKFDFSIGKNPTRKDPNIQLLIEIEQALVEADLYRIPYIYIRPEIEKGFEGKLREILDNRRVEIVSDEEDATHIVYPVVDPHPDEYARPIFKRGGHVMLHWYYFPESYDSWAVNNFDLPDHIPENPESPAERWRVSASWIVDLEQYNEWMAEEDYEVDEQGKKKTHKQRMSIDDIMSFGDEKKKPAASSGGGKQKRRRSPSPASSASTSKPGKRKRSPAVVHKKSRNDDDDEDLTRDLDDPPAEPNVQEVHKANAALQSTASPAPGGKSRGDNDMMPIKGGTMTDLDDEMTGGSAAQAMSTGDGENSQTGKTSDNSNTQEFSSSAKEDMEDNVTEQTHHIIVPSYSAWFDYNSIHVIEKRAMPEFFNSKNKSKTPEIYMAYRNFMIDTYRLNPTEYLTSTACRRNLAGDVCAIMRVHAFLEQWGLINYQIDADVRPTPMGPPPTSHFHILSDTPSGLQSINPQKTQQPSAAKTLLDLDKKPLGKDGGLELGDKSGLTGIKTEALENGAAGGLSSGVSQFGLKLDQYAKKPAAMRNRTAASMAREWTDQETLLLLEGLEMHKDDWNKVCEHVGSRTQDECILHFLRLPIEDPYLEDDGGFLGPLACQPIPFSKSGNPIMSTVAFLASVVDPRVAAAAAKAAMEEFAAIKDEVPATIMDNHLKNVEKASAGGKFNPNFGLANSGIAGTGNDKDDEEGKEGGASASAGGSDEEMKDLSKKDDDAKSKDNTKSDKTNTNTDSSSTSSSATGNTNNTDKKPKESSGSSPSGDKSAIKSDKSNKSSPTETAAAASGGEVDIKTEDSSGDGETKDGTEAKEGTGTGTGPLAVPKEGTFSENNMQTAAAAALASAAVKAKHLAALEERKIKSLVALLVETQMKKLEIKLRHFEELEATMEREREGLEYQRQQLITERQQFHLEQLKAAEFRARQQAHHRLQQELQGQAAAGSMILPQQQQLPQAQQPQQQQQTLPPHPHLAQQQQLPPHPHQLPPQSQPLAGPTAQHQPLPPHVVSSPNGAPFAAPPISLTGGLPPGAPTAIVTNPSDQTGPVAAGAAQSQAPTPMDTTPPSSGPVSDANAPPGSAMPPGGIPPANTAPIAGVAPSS

Key:
[1] = target: Scalloped (Sd), endogenous (Drosophila (endogenous in S2 cells)) (UniProt P30052); assay: affinity purification with mass spectrometry; endogenous Sd immunoprecipitated from S2 cell lysate with rabbit anti-Sd antibody; total Sd IP sample and serum control sent for MS directly
[2] = target: T1, Yorkie (Yki), endogenous (Drosophila (endogenous in S2 cells)) (UniProt Q45VV3); assay: affinity purification with mass spectrometry; endogenous Yki immunoprecipitated from S2 cell lysate with rabbit anti-Yki antibody; IP sample run on SDS-PAGE, bands absent in the IgG IP control selected for MS
T1 sequence: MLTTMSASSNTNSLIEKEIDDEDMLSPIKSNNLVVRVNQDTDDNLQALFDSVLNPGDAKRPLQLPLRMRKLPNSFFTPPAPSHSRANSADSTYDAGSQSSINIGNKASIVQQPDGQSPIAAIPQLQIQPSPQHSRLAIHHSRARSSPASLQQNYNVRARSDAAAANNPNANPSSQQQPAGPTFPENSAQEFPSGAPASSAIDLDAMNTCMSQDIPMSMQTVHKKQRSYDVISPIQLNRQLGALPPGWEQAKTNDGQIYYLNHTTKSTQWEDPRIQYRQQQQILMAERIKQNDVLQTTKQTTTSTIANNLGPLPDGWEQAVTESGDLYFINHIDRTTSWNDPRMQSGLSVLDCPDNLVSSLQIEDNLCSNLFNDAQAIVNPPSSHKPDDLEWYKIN

binding [1]: binds
binding [2]: binds
Molecule: Brahma (Brm), endogenous (from UniProt P25439 1-1638)

binding [2]: binds
Molecule: Osa, endogenous (from UniProt Q8IN94 1-2716)

binding [1]: binds
Molecule: Brahma associated protein 155 kDa (Mor), endogenous (from UniProt Q9VF03 1-1209)

binding [1]: binds
B1: Brahma associated protein 55kD (Bap55), endogenous (protein, UniProt Q7K012 1-425)
chain: MSGGTMLYGGDEIGALVFDPGHHSLRVGYAQEDSPKAEIPSVVGIGAAPETNLDPETKTDNNATPNNADQRKFYVDTNYVTVPRSNMEVQTYMKDGMIDNWDLFEKVIDYAYANVIQSEPEYHPVLFSEASWNVRNNREKLTELMFEKYNVPAFFLVKNAVLAAFSSGRATALVVDSGATHTSAVPVHEGYVLSQAVVKSPLGGDFLSRQCRQHLEKHGIDLSPVYKIASKDVVKERDNGRFTLRKLPENLTQSWQNYMLQLMMQDFQMNVLQVLENPFDERVAAQIPTVHYEFPNGYHQDFGSERFKIAESLFDNAMLGAGQLASTSVGMCDADVRLSLFGSVVVTGGNTLLQGFPERLNRDLQLRAPSNTRLKMISANGSVERRFGAWIGGSILASIGTFQQMWISSQEYEEAGKSQVERKCP
